# Hit rate of the full screen: of about 1,600 compounds, about 420 (26%) were called active. Inconclusive results, whose numbers are uncertain, are shown with a selection of clear calls. Calls follow the shape of the dose curve; as a rule, active = well fitted inhibition curve with a large enough effect; inconclusive = small, poorly fitted or top-dose-only effect; inactive = flat fitted curve, though single readings scatter. Where the call is inconclusive, the potency comes from a doubtful curve fit.
# Test: qHTS for Inhibitors of TGF-b: Cytotox Counterscreen for Cherry Picks; also: nearly all actives have a fitted effect of over 70% in size
# Details: HepG2 CAGA-GFP viability, ATP luminescence, 18 h, cells stimulated with TGF-beta, 500 pg/mL; activity, negative = cytotoxicity: at 46.1 µM (top of the series)
# Outline: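 HepG2 cells carrying a CAGA-GFP reporter, seeded at 1000 per well in DMEM/1% FBS; compounds plus TGF-beta (500 pg/mL) for 18 h; viability by CellTiter-Glo.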
# Potency is read from the fitted curve at half-maximal effect.
Compound,Potency,"activity, negative = cytotoxicity"
O=C(c1cc(-c2ccc(Br)cc2)nc2ccccc12)N1CCN(c2ccccc2O)CC1,"inconclusive: 23.1 µM [inhibitor, single point]",
COc1ccc(-c2nc(-c3ccc4c(c3)OCO4)[nH]c2-c2ccc(OC)cc2)cc1,"inconclusive: 7.31 µM [inhibitor, partial curve]",
Cc1ccccc1Cn1ccc(NC(=O)c2cnn3c2NC(c2ccccc2)CC3C(F)(F)F)n1 (stereo unspecified),"inconclusive: 16.4 µM [inhibitor, single point]",
O=C(OCc1ccccc1)c1ccc(NCc2cc(O)ccc2O)cc1,active: 16.4 µM,
Cc1ccccc1NC1=NCC(c2ccc([N+](=O)[O-])cc2)S1 (stereo unspecified),"inconclusive: 9.2 µM [inhibitor, partial curve]",
COC(=O)C1(CC2CC(c3cccc(Br)c3)=NO2)CCN(C(=O)OC(C)(C)C)CC1 (stereo unspecified),"inconclusive: 16.4 µM [inhibitor, partial curve]",
CN(C)c1nc(N)nc(CSc2nnnn2-c2cccc3ccccc23)n1,"inconclusive: 5.17 µM [inhibitor, partial curve]",
Cc1ccccc1C(=O)N1CCN(c2ccc(NC(=O)CSc3ccc(Cl)cc3)cc2)CC1,"inconclusive: 25.9 µM [inhibitor, single point]",
CCOC(=O)c1c(C)[nH]c(C(=O)N/N=C/c2ccc(Br)cc2)c1C,,inactive: -9.23%
Clc1ccc(CSc2nnc(-c3ccccn3)n2Cc2cccs2)cc1Cl,"inconclusive: 20.6 µM [inhibitor, single point]",
c1ccc(Nc2nc(-c3ccccc3)nc3ccccc23)cc1,"inconclusive: 29.1 µM [inhibitor, single point]",
O=C1N(c2ccccc2)C[C@@H]2C[C@@H](c3cc4ccccc4o3)N3CCC[C@@]123,"inconclusive: 0.184 µM [inhibitor, full curve]",
Cc1ccc(C)c(NS(=O)(=O)c2cc(C(=O)NCCC3=CCCCC3)ccc2C)c1,"inconclusive: 9.2 µM [inhibitor, partial curve]",
Oc1ccc(C[C@H]2CNC(=S)N2CC2CCCN2C[C@H](Cc2ccc(O)cc2)N2C[C@H](Cc3ccccc3)N(CC3CCCCC3)C2=S)cc1 (stereo partly specified),"inconclusive: 20.6 µM [inhibitor, single point]",
CC(=O)N1CCN(c2ccc(NC(=O)c3ccc([N+](=O)[O-])o3)cc2Cl)CC1,active: 18.4 µM,
COc1ccccc1CNC(=O)C(Cc1c[nH]c2ccccc12)NC(=O)OCc1ccccc1 (stereo unspecified),"inconclusive: 25.9 µM [inhibitor, single point]",
CC(C)(C)C(=O)/C(=C/c1ccc(Cl)cc1)n1cncn1,"inconclusive: 18.4 µM [inhibitor, single point]",
C[C@@H](C(=O)NCCc1ccccc1)N1C(=O)N2CCc3c([nH]c4ccccc34)[C@@]2(C)C1=O,"inconclusive: 29.1 µM [inhibitor, single point]",
O=C(Oc1ccc(Cl)c2cccnc12)c1cccnc1,,inactive: -0.162%
CC(C)(C)c1cc(C(c2cccnc2)N2CCN(CCO)CC2)cc(C(C)(C)C)c1O (stereo unspecified),active: 14.6 µM,
Cc1noc(C)c1S(=O)(=O)Nc1ccc2c(c1)C(=O)N([C@@H](C)CO)C[C@H](C)[C@@H](CN(C)Cc1ccc(C(F)(F)F)cc1)OCCCC[C@H](C)O2,"inconclusive: 20.6 µM [inhibitor, single point]",
CC(=O)Nc1ccc(-c2ccnc3c2CC(C(=O)Nc2ccc(Cl)c(C(F)(F)F)c2)O3)cc1 (stereo unspecified),"inconclusive: 16.4 µM [inhibitor, single point]",

# A few values from the entries so far.
# COC(=O)C1(CC2CC(c3cccc(Br)c3)=NO2)CCN(C(=O)OC(C)(C)C)CC1 (stereo unspecified) | Potency: inconclusive: 16.4 µM [inhibitor, partial curve]
# CC(C)(C)c1cc(C(c2cccnc2)N2CCN(CCO)CC2)cc(C(C)(C)C)c1O (stereo unspecified) | Potency: active: 14.6 µM
# CC(=O)N1CCN(c2ccc(NC(=O)c3ccc([N+](=O)[O-])o3)cc2Cl)CC1 | Potency: active: 18.4 µM
# COc1ccccc1CNC(=O)C(Cc1c[nH]c2ccccc12)NC(=O)OCc1ccccc1 (stereo unspecified) | Potency: inconclusive: 25.9 µM [inhibitor, single point]
# COc1ccc(-c2nc(-c3ccc4c(c3)OCO4)[nH]c2-c2ccc(OC)cc2)cc1 | Potency: inconclusive: 7.31 µM [inhibitor, partial curve]

# Continuation.

Compound,Potency,"activity, negative = cytotoxicity"
O=C1NCCN1CCNc1nc(NCc2ccccc2)nc2ccsc12,"inconclusive: 29.1 µM [inhibitor, single point]",
C1=C(CCNc2ncnc3c2[nH]c2ccccc23)CCCC1,active: 20.6 µM,
NS(=O)(=O)c1ccc(NC(=S)Nc2ccn(Cc3cccc4ccccc34)n2)cc1,,inactive: -29.3%
Cc1cc(C)cc(C(=O)NC(=S)Nc2ccc(Cc3ccncc3)cc2)c1,"inconclusive: 18.4 µM [inhibitor, single point]",
CCN(CC)C(=O)[C@H]1C[C@H](CC(=O)NC/C=C(\C)CCC=C(C)C)C(=O)N2CCc3c([nH]c4cc(-c5ccco5)ccc34)[C@]12C,"inconclusive: 20.6 µM [inhibitor, single point]",
CCN(C(=O)COC(=O)c1ccccc1Nc1ccccc1)c1c(N)n(Cc2ccccc2)c(=O)[nH]c1=O,,inactive: -24.4%
COc1ccc(CCNc2c3ccccc3nc3ccccc23)cc1OC,active: 20.6 µM,
CC(=O)N1CCN(c2ccc(NC(=S)NC(=O)COc3ccc(C(C)(C)C)cc3)cc2)CC1,"inconclusive: 29.1 µM [inhibitor, single point]",
Fc1cccc(Cc2c(-c3ccco3)nc3c4ccccc4ccn23)c1,"inconclusive: 23.1 µM [inhibitor, single point]",
COc1ccc(CC(N)c2csc(NC(=O)Nc3ccccc3C(C)C)n2)cc1 (stereo unspecified),"inconclusive: 29.1 µM [inhibitor, single point]",
Cc1sc2ncnc(N3CCC(C(=O)N(C)CC(=O)Nc4ccc(Cl)c(C(F)(F)F)c4)CC3)c2c1C,"inconclusive: 13 µM [inhibitor, partial curve]",
COc1ccc(C[C@@H]2CN3C(=NC[C@@H]3Cc3ccc(O)cc3)N2C[C@H](C)NC(=O)CCC2CCCCC2)cc1,"inconclusive: 20.6 µM [inhibitor, single point]",
O=C(CN1C2CCCC1CC(NC(=O)C1CCCCC1)C2)Nc1ccccc1C(F)(F)F (stereo unspecified),"inconclusive: 5.8 µM [inhibitor, partial curve]",
Cc1cc(Cl)n2c(nc3ccccc32)c1C#N,active: 5.17 µM,
Cc1ccc(-c2nc(Nc3ccc(O)cc3)c3ccccc3n2)cc1,"inconclusive: 23.1 µM [inhibitor, single point]",
C[C@]12c3[nH]c4ccc(Cl)cc4c3CCN1C(=O)[C@@H](CC(=O)NCCC1=CCCCC1)C[C@@H]2C(=O)N1CCOCC1,,inactive: -8.97%
O=C(CCNc1ccc(Br)cc1)c1cccc([N+](=O)[O-])c1,,inactive: -14.9%
O=C(Cc1cccs1)Nc1nc2c(ccc3ccccc32)s1,,inactive: -18.9%
C[C@@H]1CN([C@@H](C)CO)C(=O)c2cccc(NC(=O)Nc3ccc(F)cc3)c2O[C@@H]1CN(C)Cc1ccc(Oc2ccccc2)cc1,"inconclusive: 23.1 µM [inhibitor, single point]",
Cc1cc(C)nc(/N=C(\N)Nc2ccc(SC(F)F)cc2)n1,"inconclusive: 18.4 µM [inhibitor, single point]",
OCC1OC(n2cnc3c(NCc4ccccc4O)ncnc32)C(O)C1O (stereo unspecified),active: 4.11 µM,
Cc1cscc1-c1ccc(C(=O)Nc2c(C)cccc2C)o1,,inactive: -13.2%

Compound,Potency,"activity, negative = cytotoxicity"
COc1ccc2nc(NC(=O)c3ccc([N+](=O)[O-])o3)sc2c1,active: 20.6 µM,
O=c1c(Cc2ccc(Cl)cc2Cl)c(O)ccn1Cc1ccc(Cl)cc1,"inconclusive: 18.4 µM [inhibitor, single point]",
C[C@H](NC(=O)c1[nH]cnc1C(=O)Nc1ccc(CNC(=O)OC(C)(C)C)cc1)C(=O)OC(C)(C)C,"inconclusive: 20.6 µM [inhibitor, single point]",
CC(=O)n1nc(-c2ccncc2)nc1SCC(=O)Nc1cccc(Cl)c1,,inactive: -12.9%
COc1cccc(-c2csc(NC3OC(=O)c4c3ccc(OC)c4OC)n2)c1 (stereo unspecified),,inactive: -23.7%
CC(C)C[C@@H](CN1CCC[C@@H]1CN1C(=S)NC[C@@H]1Cc1ccc(O)cc1)N1C[C@H](Cc2ccc(O)cc2)N(CC2CCCCC2)C1=S,"inconclusive: 18.4 µM [inhibitor, single point]",
Fc1ccc(CNc2nc(-c3ccccc3)nc3ccccc23)cc1,"inconclusive: 11.6 µM [inhibitor, partial curve]",
CCOc1ccc(C(CN2CCOCC2)C(C)=O)cc1OC (stereo unspecified),active: 16.4 µM,
Nc1ncnc2c1ncn2[C@@H]1O[C@H](C(=O)NCc2ccc(OC(F)(F)F)cc2)[C@@H](O)[C@H]1O,,inactive: -14.6%
O=C(Nn1c(SCc2ccc(F)cc2)nc2ccsc2c1=O)c1ccccc1,"inconclusive: 18.4 µM [inhibitor, partial curve]",
Cn1c(/C=C/c2ccc([N+](=O)[O-])o2)nc2ccccc2c1=O,active: 6.51 µM,
O=C(CSC1=NNC(c2ccccn2)S1)Nc1ccc(C(F)(F)F)cc1 (stereo unspecified),,inactive: -22.1%
O=C(Nc1nnc(SCc2ccc(F)cc2)s1)c1ccccn1,"inconclusive: 0.58 µM [inhibitor, full curve, poor fit]",
Cc1ccsc1/C=N/NC(=O)c1cc(-c2ccncc2)nc2ccccc12,,inactive: -27%
O=C(CNc1ccc(Cl)c(C(F)(F)F)c1)N1CCN(S(=O)(=O)c2ccccc2)CC1,,inactive: -2.67%
O=S(=O)(NC1CCCC1)c1ccc(S(=O)(=O)N2CCc3ccccc32)cc1,,inactive: -17.8%
CC(C)c1ccc(/C=C(\c2nc3ccccc3[nH]2)S(=O)(=O)c2ccccc2)cc1,active: 10.3 µM,
CCOc1ccccc1NC(=O)c1nc(S(=O)(=O)Cc2ccccc2)ncc1Cl,active: 5.8 µM,
CCc1nc(N)nc(N)c1-c1ccc(N(C)Cc2ccccc2)c([N+](=O)[O-])c1,active: 0.291 µM,
COc1cccc(C2c3cc4c(cc3OC(NNC(N)=O)C2C)OCO4)c1O (stereo unspecified),,inactive: -18.7%
COc1ccc(C(=O)/C(C#N)=N/Nc2ccccc2[N+](=O)[O-])cc1,"inconclusive: 16.4 µM [inhibitor, single point]",
CCCc1nc([N+](=O)[O-])c(S(=O)(=O)c2ccccc2)n1CC(C)C,"inconclusive: 25.9 µM [inhibitor, single point]",

# From PubChem BioAssay AID720535 (National Center for Advancing Translational Sciences (NCATS), 2013)
